US20160177261A1, “METHODS OF INDUCING AND PREVENTING NEUROFIBROMATOSIS IN SCHWANN CELLS” (University of Central Florida Research Foundation, Inc., priority 2007, published 2016)
Entries after “also recorded” stand apart in the source; their conditions may differ. At least one compound was matched to its structure with a doubt left.

Legend:
P-CREB = assay: Western blot of phosphorylated CREB in subconfluent SCs; assay type: cell-based, rat; conditions: stimulation of starved SCs 30 min without inhibitor (forskolin 2 μM)
Procedure: (§1) FIG. 3: NRG1 stimulates phosphorylation of Sch by PKA. A, C) Subconfluent SC cultures grown on PLL were serum-starved overnight and were stimulated for 30 minutes with NRG1 (10 ng/ml) in the absence and presence of AG825 (1 μM). Western blot analysis was used to determine the levels of phosphorylated and total ErbB2, Sch, and Pak. B, D) Quantification of the western blots of starved (D0.5), NRG1 stimulated (NRG) and NRG1 plus AG825 (N+A) stimulated cultures is shown. E) Subconfluent SCs grown as above were stimulated for 30 minutes with NRG in the presence and absence of PKI 14-22 (50 nM), and with forskolin (FSK; 2 μM) alone. F) Quantification of the Western blots for ErbB2, Sch, and Pak in starved (D0.5) cultures, and in those stimulated with NRG1 (NRG), NRG1 with PKI 14-22 (N+P), and forskolin (FSK) is shown. […]
Subconfluent SC cultures grown on PLL were serum-starved overnight and were stimulated for 30 minutes with NRG1 (10 ng/ml) and laminin-1 ([…]) together, in the absence and presence of AG825 (1 μM). […] Total protein expression was analyzed using antibodies against Sch (Sch-C18), Pak, β1 integrin, and ErbB2. B, D, F) Quantification of the expression levels of phosphorylated forms of Sch (PS518-Sch) and Pak (P-Pak) were assessed in starved (D0.5), NRG1 and laminin-1 stimulated (NRG+Lam), and NRG1 plus laminin-1 and AG825 (N+L+A) stimulated cultures. […]

PS518-Sch = assay: Western blot densitometry of Sch-S518 phosphorylation in subconfluent SCs; assay type: cell-based, rat; conditions: forskolin (2 μM) alone, starved SCs, 30 min
Procedure: as §1
FIG. 4: Soluble Laminin-1 Stimulates Phosphorylation of Sch. […] Quantification of Western blots for starved (D0.5) and laminin-1 stimulated (Lam) cultures is shown. […]
Subconfluent SC cultures grown on PLL were serum-starved overnight and were stimulated for 30 minutes with NRG1 (10 ng/ml) and laminin-1 ([…]) together, in the absence and presence of AG825 (1 μM). […] Total protein expression was analyzed using antibodies against Sch (Sch-C18), Pak, β1 integrin, and ErbB2. […] The amount of total Sch (Sch-C18), Pak, β1 integrin, and ErbB2 proteins were measured by densitometry. […]

`C=C[C@@]1(C)CC(=O)[C@]2(O)[C@@]3(C)[C@@H](O)CCC(C)(C)[C@@H]3[C@H](O)[C@H](OC(C)=O)[C@@]2(C)O1` [forskolin] was tested, and the “effect on CREB phosphorylation” value (P-CREB) was “induced phosphorylation” and the “effect on Sch phosphorylation” value (PS518-Sch) was “induced phosphorylation; also recorded: increases Sch phosphorylation”.
